This note sets out measurements from PMC7819943, “Rice protein-binding microarrays: a tool to detect cis-acting elements near promoter regions in rice”.

Chains of the proteins cited; added tags and fusions are not shown.
UniProt Q0JBA9, entry or part of it: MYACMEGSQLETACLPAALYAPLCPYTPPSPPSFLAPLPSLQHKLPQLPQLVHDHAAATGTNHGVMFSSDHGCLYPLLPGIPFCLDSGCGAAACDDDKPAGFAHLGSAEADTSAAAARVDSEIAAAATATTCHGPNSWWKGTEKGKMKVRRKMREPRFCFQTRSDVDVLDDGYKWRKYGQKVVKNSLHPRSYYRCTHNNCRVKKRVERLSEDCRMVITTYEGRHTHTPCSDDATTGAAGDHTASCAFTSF

Some of the results follow.

This assay concerns the target OsWRKY34 (Oryza sativa, UniProt Q0JBA9 1-250). The assay can be described thus: protein-binding microarray (RPBM); PBS, 2% BSA, 51.3 ng/ul salmon testes DNA, 50 uM zinc acetate, 200 nM TF, 25 C, 1 h; high values mean tight binding. Conditions: protein: recombinant; tags: N-terminal polyhistidine and DsRed monomer fusion (pET32a); label: CyDye5-dUTP incorporated in the synthesized complementary strand; 3' TTTTT single-stranded linker to array surface; dsDNA, one strand shown. The method, boiled down: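 Polyhistidine-tagged DsRed fusions of transcription factors, joined at the N-terminus, were expressed in E. coli BL21-CodonPlus and isolated on Ni–NTA. They were incubated at 200 nM for 1 h at 25 °C on a custom Agilent array, double-stranded and BSA-blocked, in PBS with 2% BSA, salmon testes DNA and 50 µM zinc acetate. The binding signal is per-feature fluorescence intensity (arbitrary units) read on an Axon 4000B scanner after washing.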
On to “TTCTGTGTGATTATATGAAGCTAGGGTCTGACCGCCTCACCGGAGTCACCTAGTGCAG”, for which the binding signal was 11300 fluorescence intensity (a.u.).

For “GCGCCCGTGCGCGCATCCTCTCTCTCTCTCACACACACACCGGAGTCACCTAGTGCAG”, the binding signal is 8600 fluorescence intensity (a.u.).

For the sequence “TTGGCTATTTGGCAGTTTCTCCACGAGCACCTCCAATCTCCGGAGTCACCTAGTGCAG”, the binding signal is 8470 fluorescence intensity (a.u.).

As to “CCCACGTTTGCCTTCTACTGTACGTCACTCCGTACTCCTCCGGAGTCACCTAGTGCAG”, the binding signal was 8310 fluorescence intensity (a.u.).

As for “ATATCACTCCACAACACATGCAAGTTCAAATTTGACTTACCGGAGTCACCTAGTGCAG”, the binding signal is 11200 fluorescence intensity (a.u.).

Consider “TCGTGTTTAGCTAATTAGTGGTTTGTGTCCACGTTAGTTTCGGAGTCACCTAGTGCAG”, for which the binding signal was 11300 fluorescence intensity (a.u.).

With “ATTGATGGGGTAAATGGGCTGGACTTCGAGCGCAAAAAAACGGAGTCACCTAGTGCAG”, the binding signal is 10000 fluorescence intensity (a.u.).

Consider “GCAGCGCATCCGCGCCTCGCCTTGCTTGATTTGCCTCGCCCGGAGTCACCTAGTGCAG”, for which the binding signal is 10700 fluorescence intensity (a.u.).

Take “GGTTTCGATAATATTCGTTTTCGTTTTCATTTCCGGGGTTCGGAGTCACCTAGTGCAG”: the binding signal was 9190 fluorescence intensity (a.u.).

Consider “ACGAAGGGAGTATTATTCTACGTTGCTATATTTGTTTTCTCGGAGTCACCTAGTGCAG”, for which the binding signal is 9610 fluorescence intensity (a.u.).

Consider “AATCCTTCAATTGTTTCTATGTTTTTCTATTACCAAGTTTCGGAGTCACCTAGTGCAG”, for which the binding signal is 10200 fluorescence intensity (a.u.).

In the case of “ATCTAACCCGGCTTAAACTGTAATAAACCATGCTCCTTATCGGAGTCACCTAGTGCAG”, the binding signal was 8850 fluorescence intensity (a.u.).

For “GTGTGTGTTTTTGCAAAAGTTTTCTATAGAAAAGTTACATCGGAGTCACCTAGTGCAG”, the binding signal was 8210 fluorescence intensity (a.u.).

For the sequence “CTTTTTTCCATCTCTCCACTGAGACCGGTGACACAAATCTCGGAGTCACCTAGTGCAG”, the binding signal is 8100 fluorescence intensity (a.u.).

For the sequence “GATATTTCTCTTTATCATGGTCACCGTTCATCATGAGCAACGGAGTCACCTAGTGCAG”, the binding signal is 8970 fluorescence intensity (a.u.).

Turning to “GCTTATAGAGGTAGGGTATGTGTGTATGTGTTTATAGACGCGGAGTCACCTAGTGCAG”, the binding signal is 8610 fluorescence intensity (a.u.).

With “TGTCCAAATCCACCTACGCGCCCCGCCCTCGAACGCGCACCGGAGTCACCTAGTGCAG”, the binding signal was 9280 fluorescence intensity (a.u.).

With “TATCCAGCACCTTGTAAGTTTTCAATCCCAAATTATATGTCGGAGTCACCTAGTGCAG”, the binding signal was 9350 fluorescence intensity (a.u.).

In the case of “CTCGGAATATGGGTGGTGATATATCAGGATGGTCGGCAAGCGGAGTCACCTAGTGCAG”, the binding signal was 8970 fluorescence intensity (a.u.).

As for “TCCAGTTGGGCGGTTGAAGGTTTTTGTTTATGACTTGCCACGGAGTCACCTAGTGCAG”, the binding signal is 11200 fluorescence intensity (a.u.).

“GTACAAGAGTCCATAATATGCTCCATGGAAACGCTGAAAACGGAGTCACCTAGTGCAG”: the binding signal was 8480 fluorescence intensity (a.u.).

For “AAATTCACTCTCCGGCCCATTTCAACTGCATTTTCGGCCTCGGAGTCACCTAGTGCAG”, the binding signal is 8440 fluorescence intensity (a.u.).

Regarding “ATCTGTTGGTAGATGGGCTGGGGATGATAGTTGCTCATCACGGAGTCACCTAGTGCAG”, the binding signal was 8420 fluorescence intensity (a.u.).

As for “TGTGTTTGTGCGATGATCATCTTTCTGTTCATCCTCTTGTCGGAGTCACCTAGTGCAG”, the binding signal was 9400 fluorescence intensity (a.u.).

On to “GTTTTGTGATCATTTATTTGGCTAATTTGCGATGCTTCACCGGAGTCACCTAGTGCAG”, for which the binding signal is 9130 fluorescence intensity (a.u.).

Consider “AGACGGAGGCCTGTTTTGTCCACTGCACACTTCACCATTCCGGAGTCACCTAGTGCAG”, for which the binding signal was 8650 fluorescence intensity (a.u.).

On to “GACGACCTTGGCACCCAGCTTCCGTCACTCGCTCGCCGCGCGGAGTCACCTAGTGCAG”, for which the binding signal was 8720 fluorescence intensity (a.u.).

Regarding “CGATCTCGTGTTCGTCGTCGTCGTTCTTGTCGATCTCTGTCGGAGTCACCTAGTGCAG”, the binding signal is 13200 fluorescence intensity (a.u.).

“GCACTTATTTTCCCGCGCTACATGTTGTACGTACTCGGTTCGGAGTCACCTAGTGCAG”: the binding signal was 9590 fluorescence intensity (a.u.).

For “AATTTTTTTAATCCACATGACAACATTGTCTTGCTATGCCCGGAGTCACCTAGTGCAG”, the binding signal is 8390 fluorescence intensity (a.u.).

As to “ATCGGTCTTTTATCTTTTCTGCCGATCGGTCTTTTGTCTTCGGAGTCACCTAGTGCAG”, the binding signal was 11000 fluorescence intensity (a.u.).

Turning to “TCATCTGGCATCCGGCTGTCACGTTTTCCCGTTCGCTACACGGAGTCACCTAGTGCAG”, the binding signal is 8680 fluorescence intensity (a.u.).

Turning to “GAGGTTGATAGTACCTTCATCTTGGATTTCTTGGCCTGCACGGAGTCACCTAGTGCAG”, the binding signal was 8760 fluorescence intensity (a.u.).

With “ATATTTCTCTACAGCTACTTTTCTTCGAACAAGAAATTATCGGAGTCACCTAGTGCAG”, the binding signal was 8170 fluorescence intensity (a.u.).

Turning to “CAAGTTTGTTGGGCCTCGTCTCCGAATCTATCACGAATTTCGGAGTCACCTAGTGCAG”, the binding signal is 9230 fluorescence intensity (a.u.).

In the case of “GAGGTAGGGAGAGGTTTCGTTAGGGTTTCGGGCGGGGATGCGGAGTCACCTAGTGCAG”, the binding signal was 19900 fluorescence intensity (a.u.).

As for “ACTACTACCAGTCTATACCAGTGTTCTTCCACGTTGCTACCGGAGTCACCTAGTGCAG”, the binding signal was 8370 fluorescence intensity (a.u.).

With “CTTGGTTATCTTTAATATTACACTTTGATGGTTAACTTGTCGGAGTCACCTAGTGCAG”, the binding signal was 8480 fluorescence intensity (a.u.).

Turning to “TCCATTGAACTGATATGCTACACTGCTGTCTCTAATAGTGCGGAGTCACCTAGTGCAG”, the binding signal was 8480 fluorescence intensity (a.u.).

With “TCTCCTCTAATTCTTGCGTTTTTCCTGTGATCCAATCAAACGGAGTCACCTAGTGCAG”, the binding signal is 8720 fluorescence intensity (a.u.).

Regarding “CTTGGGTTGGGCGGGAACTTGGGGAGGAATTATGGACTATCGGAGTCACCTAGTGCAG”, the binding signal was 16800 fluorescence intensity (a.u.).

For “CTGTGTTTCAAAGGGATCTTAAGTGTACATTCTATATCATCGGAGTCACCTAGTGCAG”, the binding signal is 9450 fluorescence intensity (a.u.).
